Patent publication EP3459964A1, “GALECTIN-1 BINDING PEPTIDES AND USE THEREOF FOR DIAGNOSTIC AND THERAPEUTIC PURPOSE” (Université de Mons, priority 2017, dated 2019)
For at least one compound, name, drawing or mass did not settle the structure. Where no end group is shown, it is not given here.

Amino acid sequences for entries named in this document (tags omitted).
UniProt P09382, whole entry: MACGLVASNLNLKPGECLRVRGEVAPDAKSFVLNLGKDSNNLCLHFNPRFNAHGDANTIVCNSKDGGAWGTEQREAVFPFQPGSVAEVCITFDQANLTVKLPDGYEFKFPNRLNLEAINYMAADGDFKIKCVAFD

Target: T1, galectin-1 (Homo sapiens, UniProt P09382)
T1 construct: purchased Peprotech
Experiment: Estimation of K*d of biotinylated peptides on immobilized gal-1 (ELISA)
Assay type: binding
Conditions: synthesized biotinylated peptides, apparent dissociation constant; read-out: K*d values against gal-1

Sequence	Kd [µM]
HLWGWLYAPSFQ [Peptide P1, HLWGWLYAPSFQ]	29.4
YSWHIDIVAPRN [Peptide P7, YSWHIDIVAPRN]	12.6
